No constants are given. Whether binding was seen depends on the method and setting. In cells and extracts the contact can be indirect. Some binding calls cover weakened binding; strength is not graded here. For some of these results: Sequences can lack the tags named with a protein.
Legend:
Experiment in all cases: co-IP; constructs co-expressed in HEK293T cells; lysis in 20mM Tris-HCl pH7.9, 150mM NaCl, 5mM EDTA, 1% NP-40, 5% glycerol; GFP-tagged protein precipitated with GFP-Trap (anti-GFP) beads, V5-tagged protein detected by anti-V5 blot
[1] = target: T1, TTBK2^Cterm-GFP (amino acids C-terminal to the kinase domain, 306-1243) (mouse) (UniProt Q3UVR3)
T1 sequence: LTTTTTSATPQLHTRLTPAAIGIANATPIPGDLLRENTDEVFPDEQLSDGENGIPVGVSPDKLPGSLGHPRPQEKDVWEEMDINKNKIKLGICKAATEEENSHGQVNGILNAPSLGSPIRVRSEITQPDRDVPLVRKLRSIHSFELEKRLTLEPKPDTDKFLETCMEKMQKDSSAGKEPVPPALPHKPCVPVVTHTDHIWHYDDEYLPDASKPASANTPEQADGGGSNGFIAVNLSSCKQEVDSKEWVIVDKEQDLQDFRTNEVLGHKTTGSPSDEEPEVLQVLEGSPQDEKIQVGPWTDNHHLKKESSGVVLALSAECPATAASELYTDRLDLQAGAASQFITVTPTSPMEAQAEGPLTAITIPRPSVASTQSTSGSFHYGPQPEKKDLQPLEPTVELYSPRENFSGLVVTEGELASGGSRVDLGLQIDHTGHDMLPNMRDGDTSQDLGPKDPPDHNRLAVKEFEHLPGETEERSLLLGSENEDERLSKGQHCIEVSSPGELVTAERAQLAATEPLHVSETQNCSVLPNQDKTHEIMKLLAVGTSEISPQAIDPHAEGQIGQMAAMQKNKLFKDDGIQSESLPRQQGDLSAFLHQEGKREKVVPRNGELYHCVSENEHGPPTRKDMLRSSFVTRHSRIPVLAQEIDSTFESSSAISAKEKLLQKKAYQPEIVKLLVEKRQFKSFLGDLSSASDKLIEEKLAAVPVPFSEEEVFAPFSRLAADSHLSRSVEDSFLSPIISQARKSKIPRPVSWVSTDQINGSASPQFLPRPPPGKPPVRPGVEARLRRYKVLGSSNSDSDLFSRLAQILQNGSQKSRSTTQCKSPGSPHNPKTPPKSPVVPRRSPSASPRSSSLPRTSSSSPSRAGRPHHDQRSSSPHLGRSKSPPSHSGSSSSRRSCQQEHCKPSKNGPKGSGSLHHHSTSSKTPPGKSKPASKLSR

[2] = target: T2, TTBK2^SCA11 (SCA11-associated truncation of TTBK2, amino acids 1-443) (mouse) (UniProt Q3UVR3)
T2 sequence: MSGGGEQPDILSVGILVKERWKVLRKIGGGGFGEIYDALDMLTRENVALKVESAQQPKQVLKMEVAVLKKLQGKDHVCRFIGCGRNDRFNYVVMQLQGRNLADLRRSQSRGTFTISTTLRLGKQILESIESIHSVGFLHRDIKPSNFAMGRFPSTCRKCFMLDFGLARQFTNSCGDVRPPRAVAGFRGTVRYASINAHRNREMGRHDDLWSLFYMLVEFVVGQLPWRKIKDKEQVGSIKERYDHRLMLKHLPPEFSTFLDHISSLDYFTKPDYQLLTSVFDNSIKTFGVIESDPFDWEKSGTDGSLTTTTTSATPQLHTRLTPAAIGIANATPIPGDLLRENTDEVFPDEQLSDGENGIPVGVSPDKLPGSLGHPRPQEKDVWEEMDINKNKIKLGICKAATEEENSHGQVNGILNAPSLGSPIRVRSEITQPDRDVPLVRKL

[3] = target: full-length mouse Tau tubulin kinase 2 (TTBK2^FL) (mouse) (UniProt Q3UVR3)

B1: full-length mouse Tau tubulin kinase 2 (TTBK2^FL) (protein, UniProt Q3UVR3 1-1243)
chain: MSGGGEQPDILSVGILVKERWKVLRKIGGGGFGEIYDALDMLTRENVALKVESAQQPKQVLKMEVAVLKKLQGKDHVCRFIGCGRNDRFNYVVMQLQGRNLADLRRSQSRGTFTISTTLRLGKQILESIESIHSVGFLHRDIKPSNFAMGRFPSTCRKCFMLDFGLARQFTNSCGDVRPPRAVAGFRGTVRYASINAHRNREMGRHDDLWSLFYMLVEFVVGQLPWRKIKDKEQVGSIKERYDHRLMLKHLPPEFSTFLDHISSLDYFTKPDYQLLTSVFDNSIKTFGVIESDPFDWEKSGTDGSLTTTTTSATPQLHTRLTPAAIGIANATPIPGDLLRENTDEVFPDEQLSDGENGIPVGVSPDKLPGSLGHPRPQEKDVWEEMDINKNKIKLGICKAATEEENSHGQVNGILNAPSLGSPIRVRSEITQPDRDVPLVRKLRSIHSFELEKRLTLEPKPDTDKFLETCMEKMQKDSSAGKEPVPPALPHKPCVPVVTHTDHIWHYDDEYLPDASKPASANTPEQADGGGSNGFIAVNLSSCKQEVDSKEWVIVDKEQDLQDFRTNEVLGHKTTGSPSDEEPEVLQVLEGSPQDEKIQVGPWTDNHHLKKESSGVVLALSAECPATAASELYTDRLDLQAGAASQFITVTPTSPMEAQAEGPLTAITIPRPSVASTQSTSGSFHYGPQPEKKDLQPLEPTVELYSPRENFSGLVVTEGELASGGSRVDLGLQIDHTGHDMLPNMRDGDTSQDLGPKDPPDHNRLAVKEFEHLPGETEERSLLLGSENEDERLSKGQHCIEVSSPGELVTAERAQLAATEPLHVSETQNCSVLPNQDKTHEIMKLLAVGTSEISPQAIDPHAEGQIGQMAAMQKNKLFKDDGIQSESLPRQQGDLSAFLHQEGKREKVVPRNGELYHCVSENEHGPPTRKDMLRSSFVTRHSRIPVLAQEIDSTFESSSAISAKEKLLQKKAYQPEIVKLLVEKRQFKSFLGDLSSASDKLIEEKLAAVPVPFSEEEVFAPFSRLAADSHLSRSVEDSFLSPIISQARKSKIPRPVSWVSTDQINGSASPQFLPRPPPGKPPVRPGVEARLRRYKVLGSSNSDSDLFSRLAQILQNGSQKSRSTTQCKSPGSPHNPKTPPKSPVVPRRSPSASPRSSSLPRTSSSSPSRAGRPHHDQRSSSPHLGRSKSPPSHSGSSSSRRSCQQEHCKPSKNGPKGSGSLHHHSTSSKTPPGKSKPASKLSR
- binding [1]: binds
- binding [2]: no binding
- binding [3]: binds

B2: TTBK2^SCA11 (SCA11-associated truncation of TTBK2, amino acids 1-443) (domain or fragment, UniProt Q3UVR3 1-443)
chain: T2 sequence
- binding [2]: no binding

Reference: paper PMC6307817
